Experimental data: PubChem BioAssay AID2551 (National Center for Advancing Translational Sciences (NCATS), 2010)
Hit rate of the full screen: of about 310,000 compounds, about 17,000 (5.5%) were called active. Inconclusive results, whose numbers are uncertain, are shown with a selection of clear calls. Calls follow the shape of the dose curve; as a rule, active = well fitted inhibition curve with a large enough effect; inconclusive = small, poorly fitted or top-dose-only effect, or effect the other way; inactive = no such curve, though single readings can be large or run the other way. Potencies beside an inconclusive call are fits to weak or partial responses and may not hold up.

Amino acid sequences for entries named in this document (tags omitted). A change or cut given only in a name is not applied to a line headed by its entry.
UniProt P51450: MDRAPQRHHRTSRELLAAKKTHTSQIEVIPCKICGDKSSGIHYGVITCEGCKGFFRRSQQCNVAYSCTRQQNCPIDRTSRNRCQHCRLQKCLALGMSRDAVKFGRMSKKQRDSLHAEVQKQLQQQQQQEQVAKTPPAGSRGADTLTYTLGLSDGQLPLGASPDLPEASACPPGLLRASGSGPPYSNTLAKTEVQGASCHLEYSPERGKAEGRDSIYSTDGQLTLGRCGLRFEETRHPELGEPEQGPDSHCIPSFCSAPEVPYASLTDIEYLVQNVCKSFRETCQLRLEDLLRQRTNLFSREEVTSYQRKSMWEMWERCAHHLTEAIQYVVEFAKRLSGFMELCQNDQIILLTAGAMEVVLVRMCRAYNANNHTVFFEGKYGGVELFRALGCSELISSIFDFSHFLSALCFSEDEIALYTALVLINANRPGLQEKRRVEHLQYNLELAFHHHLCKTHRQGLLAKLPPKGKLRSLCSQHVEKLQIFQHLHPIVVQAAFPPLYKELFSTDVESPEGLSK

biological target: Nuclear receptor ROR-gamma (Mus musculus) (UniProt P51450); assay: qHTS for inhibitors of ROR gamma transcriptional activity; conditions: Drosophila S2 Gal4-RORgamma UAS-luciferase reporter, 20 h; activity change, negative = inhibition: at 53.6 µM (top of the series); also: nearly all actives have a fitted effect of over 60% in size
In short: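 Compounds are pin-transferred onto Drosophila Schneider cells expressing a copper-inducible Gal4–ROR gamma transactivation domain fusion. After 1 hr, copper sulfate is added to 700 uM final; luciferase is read 20 hr later.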
% is scaled to controls: 0 for no effect and ±100 for the full control effect; potency is read from the fitted curve at half-maximal effect.

Structure (SMILES)	Potency	activity change, negative = inhibition
CCOC(=O)c1ccc(NC(=O)CC2Sc3ncnn3C2=O)cc1 (stereo not drawn)	inconclusive: 22.4 µM [inhibitor, single point]	
O=C(CSc1ccc([N+](=O)[O-])cn1)Nc1cc(C(F)(F)F)ccc1N1CCOCC1	inconclusive: 1.78 µM [activator, full curve]	
CC(C)Oc1ccccc1NC(=O)CSc1nc2ccccc2c(=O)n1C	inconclusive: 11.2 µM [activator, partial curve]	
CC1CCCCN1C(=O)c1cc2nc(-c3ccccc3)cc(-c3ccccc3)n2n1 (stereo not drawn)	inconclusive: 1.12 µM [activator, full curve]	
O=C(N/C(=C\c1ccc([N+](=O)[O-])cc1)C(=O)N1CCCCC1)c1ccccc1		inactive: -4.9%
COc1ccc(CCN(Cc2ccccn2)C(=S)Nc2ccccc2F)cc1OC	active: 12.6 µM	
CCOc1cc(/C=C(\C#N)C(=O)NCC2CCCO2)ccc1O (stereo not drawn)	inconclusive: 12.6 µM [activator, single point]	
O=C(/C=C/c1ccc(F)cc1)c1ccccc1Br	inconclusive: 35.5 µM [inhibitor, single point]	
CCOC(=O)N1CCC(NC(=O)C2CCN(c3nc(-c4ccc(OC)cc4)no3)CC2)CC1		inactive: 4.35%
COCc1cc(C)nc(SCC(=O)Nc2ccc3c(c2)OCO3)c1C#N	inconclusive: 35.5 µM [activator, single point]	
O=C1OC(/C=C/c2ccc(Cl)cc2Cl)=NC/1=C\c1cccs1		inactive: -15.8%
CCOc1ccc(OCC)c(NC(=O)C2COc3ccccc3O2)c1 (stereo not drawn)	inconclusive: 12.6 µM [activator, single point]	
CN(C)CCCNc1cc(C(C)(C)C)nc2c(-c3ccc(Cl)cc3)cnn12	active: 2 µM	
Cc1nc(SCC(=O)NCC2CCCO2)c2c3c(sc2n1)CCCC3 (stereo not drawn)	active: 3.55 µM	
Cc1cccc(NC(=O)C2c3ccccc3Oc3ccccc32)n1		inactive: 25.1%
Nc1nc(CSc2nc3ccccc3s2)nc(N2CCOCC2)n1	inconclusive: 12.6 µM [inhibitor, single point]	
CCN(CC)c1ccc(NC(=O)c2nc3nc(C)cc(C(F)F)n3n2)cc1	inconclusive: 3.55 µM [activator, full curve]	
CC(OC(=O)CCCCCN=C1NS(=O)(=O)c2ccccc21)C(=O)Nc1cc(Cl)cc(Cl)c1 (stereo not drawn)	inconclusive: 20 µM [activator, single point]	
Nn1c(SCC(=O)NC2CCCc3ccccc32)nnc1-c1cccs1 (stereo not drawn)		inactive: 11.3%
CC(=O)c1ccc(N2CCN(C(=O)Cc3cccs3)CC2)cc1	inconclusive: 12.6 µM [activator, partial curve]	
COc1ccc(CCN2CCCC(CN(C)Cc3cccc(OC)c3)C2)cc1 (stereo not drawn)		inactive: 0.425%
O=[N+]([O-])c1ccc(N2CCCCC2)s1		inactive: 1.5%
Cc1ccc2nc(SCc3nc4c(cnn4-c4ccccc4)c(=O)[nH]3)[nH]c2c1	inconclusive: 35.5 µM [inhibitor, single point]	
Cc1cccc(CCNC(=O)c2cccc(N3CCCC3=O)c2)c1	active: 10 µM	
COc1ccc(N2CCN(C(=O)c3ccc(NS(=O)(=O)c4cccs4)cc3)CC2)cc1	inconclusive: 7.08 µM [activator, partial curve]	

Structure (SMILES)	Potency	activity change, negative = inhibition
O=C(CSc1ccccn1)N/N=C/c1cc([N+](=O)[O-])ccc1O	active: 2 µM	
CCOC(=O)c1cnc(-n2nc(C)cc2C)nc1NNc1cc(-c2ccccc2)nc(C)n1	active: 0.0891 µM	
CCOc1ccc(OCCC(=O)Nc2ccc(F)cc2C)cc1	inconclusive: 11.2 µM [activator, partial curve, poor fit]	
O=C(c1ccc2oc(Cc3ccc(Cl)cc3)nc2c1)N1CCCCC1CCO (stereo not drawn)	inconclusive: 17.8 µM [activator, single point]	
COc1ccc(C2SCC(=O)N2CCc2ccc(OC)c(OC)c2)cc1 (stereo not drawn)	inconclusive: 35.5 µM [inhibitor, single point]	
CCCCNC(=O)N(O)C1N(CCCC)C(=O)N(CC(=O)OC)C1(C)C (stereo not drawn)		inactive: -3.84%
Cc1ccc(C(CC(=O)O)Nc2nc(N3CCCCC3)nc(N3CCCCC3)n2)cc1 (stereo not drawn)	inconclusive: 8.91 µM [activator, partial curve]	
CCCc1cc(C(=O)N/N=C/c2ccc(CC)s2)c2ccccc2n1	active: 2.82 µM	
CCn1nnc2cc(C(=O)NCCc3ccccc3F)ccc21	inconclusive: 15.8 µM [inhibitor, single point]	
CCCN1C(=S)c2ccccc2C1c1ccccc1 (stereo not drawn)	active: 10 µM	
Brc1cccc(Cn2c(-c3cncs3)nc3ccccc32)c1	active: 8.91 µM	
CC1=CN2C(=N)/C(=C\c3cn(CCCOc4ccccc4)c4ccccc34)C(=O)N=C2S1	active: 7.08 µM	
CCOC(=O)c1c(-c2ccccc2)csc1NC(=S)NC	inconclusive: 0.708 µM [inhibitor, single point]	
CCCn1c(SCC(=O)N2c3ccc(F)cc3CCC2C)nnc1-c1ccccn1 (stereo not drawn)	inconclusive: 0.158 µM [activator, partial curve, poor fit]	
COc1cccc(OC)c1C(=O)NC(=S)Nc1ccc2c(c1)Cc1ccccc1-2	inconclusive: 3.16 µM [inhibitor, single point]	
Cc1oc(-c2ccc(F)cc2)nc1CN1CCCC(C(=O)N2CCOCC2)C1 (stereo not drawn)		inactive: -33.3%
CCOC(=O)Cc1nnc2c(Nc3ccc(Cl)cc3)nc3nonc3n12	inconclusive: 28.2 µM [inhibitor, single point]	
CC1=C(C(=O)OCCNC(=O)c2ccccc2O)C(c2ccccc2[N+](=O)[O-])C(C(=O)OCC2CCCO2)=C(C)N1 (stereo not drawn)	inconclusive: 11.2 µM [activator, partial curve, poor fit]	
CCOc1cc(/C=N/Nc2nc3ccccc3[nH]2)cc(Br)c1OCC(=O)N(C)C	inconclusive: 22.4 µM [inhibitor, single point]	
CC(C)Cc1ccc(C(C)C(=O)OCC(=O)c2c[nH]c3ccccc23)cc1 (stereo not drawn)	inconclusive: 15.8 µM [inhibitor, single point]	
C/C(CC(=O)NC(C)c1ccccc1)=N\NC(N)=S (stereo not drawn)	inconclusive: 22.4 µM [inhibitor, partial curve, poor fit]	
COc1ccc2cc(C(=O)OC(C)C)sc(=O)c2c1OC	inconclusive: 12.6 µM [activator, single point]	
CCCN(CC1CC1)C(=O)CSc1nnc(-c2cc(-c3cccs3)nc3ccccc23)o1		inactive: -12.2%
CCOC(=O)c1c(-c2cccs2)csc1NC(=O)CN1CC(C)OC(C)C1 (stereo not drawn)		inactive: -3.75%
COCCCNC(=O)c1cc(Sc2nnc(C)s2)nc2ccccc12	inconclusive: 0.562 µM [activator, full curve]	

Entries from the list above containing bromine:
Structure (SMILES)	Potency	activity change, negative = inhibition
O=C(/C=C/c1ccc(F)cc1)c1ccccc1Br	inconclusive: 35.5 µM [inhibitor, single point]	
Brc1cccc(Cn2c(-c3cncs3)nc3ccccc32)c1	active: 8.91 µM	
CCOc1cc(/C=N/Nc2nc3ccccc3[nH]2)cc(Br)c1OCC(=O)N(C)C	inconclusive: 22.4 µM [inhibitor, single point]	

Going on with the list.

Structure (SMILES)	Potency	activity change, negative = inhibition
COc1ccc2cnn(-c3ccccc3C)c(=O)c2c1OC		inactive: 5.15%
O=C1CNC(=S)N1c1nc2ccccc2s1	active: 0.794 µM	
CC(OC(=O)c1ccccc1Nc1ccc(SC(F)F)cc1)C(N)=O (stereo not drawn)	inconclusive: 28.2 µM [activator, single point]	
CCCC(C)NC(=O)c1cccc(Oc2ccccc2)c1 (stereo not drawn)	active: 35.5 µM	
CCOC(=O)[C@@H]1[C@H]2COc3cc(OC)ccc3[C@@H]2N2C(=O)N(c3cccc(F)c3)C(=O)[C@@]12C	active: 10 µM	
O=C(/C=C/c1ccc(OC(F)F)cc1)Nc1cccc(S(=O)(=O)N2CCOCC2)c1	inconclusive: 6.31 µM [activator, single point]	
COc1cc([N+](=O)[O-])ccc1NC(=O)COC(=O)c1n[nH]c2ccccc12	inconclusive: 20 µM [activator, single point]	
Cc1ccc(C(C)C)cc1S(=O)(=O)NC1CC(C)(C)NC(C)(C)C1	inconclusive: 5.62 µM [inhibitor, partial curve]	
O=C(CC1SC(=Nc2ccc(OC(F)F)cc2)N(CCC2=CCCCC2)C1=O)Nc1ccccc1F (stereo not drawn)		inactive: 1.75%
O=C1C=C(c2ccccc2)OC2(CCCC2)O1	inconclusive: 0.112 µM [inhibitor, full curve, poor fit]	
COc1ccccc1CNc1ncnc2ccc(-c3ccc(C(=O)N(C)C)cc3)cc12		inactive: 28.1%
Cc1cc(NC(=O)CSc2nnc(-c3cccc(Cl)c3)o2)no1	inconclusive: 12.6 µM [inhibitor, single point]	
COc1cccc(COCCN2CCN(S(=O)(=O)c3ccccc3)CCC2=O)c1		inactive: 16.6%
CCNC(=O)COC(=O)c1cc(-c2ccco2)nc2ccccc12		inactive: 37.5%
Cc1cccc(NC(=S)Nc2ccccn2)c1	active: 0.501 µM	
Cc1sc2nc(CN3CCOCC3)nc(N3CCC(C(N)=O)CC3)c2c1C	inconclusive: 0.0794 µM [inhibitor, single point]	
O=C(N/N=C/c1ccc(OC(F)F)cc1)c1ccc(Br)cc1	inconclusive: 22.4 µM [inhibitor, single point]	
CCCn1c(CN2CCN(c3cccc(Cl)c3)CC2)nc2c1c(=O)n(C)c(=O)n2C		inactive: -5.1%
O=C(Nc1sc2c(c1-c1nc3ccccc3[nH]1)CCCC2)C1CC1	inconclusive: 12.6 µM [inhibitor, partial curve, poor fit]	
C(=N\Nc1ccc2ccccc2n1)/c1ccc2c(c1)OCO2	active: 8.91 µM	
COCCCNC(=O)CN1CCN(Cc2ccc(Cl)cc2)C1=O	inconclusive: 6.31 µM [inhibitor, single point]	
COc1ccc(/C=C/C(=O)Nc2ccc(N3CCOCC3)cc2)cc1		inactive: -5.48%
CC1CC=CC2C1C(=O)N(Cc1ccccc1)C2c1ccc(-c2ccoc2)cc1F (stereo not drawn)	inconclusive: 35.5 µM [inhibitor, single point]	
